Measurements: US20230050038A1
These are yes or no findings as the source states them, for the method shown. Some binding calls cover weakened binding; strength is not graded here.

Biological target: T1, VEGFR2 (recombinant, surface plasmon resonance), P35968
T1 chain: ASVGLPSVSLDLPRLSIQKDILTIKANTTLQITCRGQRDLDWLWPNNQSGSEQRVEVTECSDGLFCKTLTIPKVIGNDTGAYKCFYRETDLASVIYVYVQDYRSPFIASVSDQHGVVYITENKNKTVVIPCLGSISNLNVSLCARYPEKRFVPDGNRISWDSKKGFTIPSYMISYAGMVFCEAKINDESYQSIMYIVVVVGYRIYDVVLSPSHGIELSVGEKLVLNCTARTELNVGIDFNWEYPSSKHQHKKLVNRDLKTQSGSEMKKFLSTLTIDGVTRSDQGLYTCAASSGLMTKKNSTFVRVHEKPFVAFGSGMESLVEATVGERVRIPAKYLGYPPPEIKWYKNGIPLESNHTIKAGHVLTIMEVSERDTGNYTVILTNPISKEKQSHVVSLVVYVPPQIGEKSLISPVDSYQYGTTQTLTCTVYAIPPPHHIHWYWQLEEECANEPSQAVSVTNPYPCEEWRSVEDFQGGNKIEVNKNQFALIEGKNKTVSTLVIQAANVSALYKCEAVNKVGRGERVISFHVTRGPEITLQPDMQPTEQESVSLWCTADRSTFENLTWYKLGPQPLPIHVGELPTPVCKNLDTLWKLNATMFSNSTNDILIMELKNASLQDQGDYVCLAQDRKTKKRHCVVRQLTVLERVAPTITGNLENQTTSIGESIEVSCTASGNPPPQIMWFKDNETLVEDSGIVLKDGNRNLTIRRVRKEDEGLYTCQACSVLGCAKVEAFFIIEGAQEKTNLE
Assay: surface plasmon resonance
Conditions: remark: other sources report otherwise

B1: PDGF-CC (recombinant), Q9NRA1 235-345 (ligand, UniProt Q9NRA1 235-345, looked up)
chain: VVDLNLLTEEVRLYSCTPRNFSVSIREELKRTDTIFWPGCLLVKRCGGNCACCLHNCNECQCVPSKVTKKYHEVLQLRPKTGVRGLHKSLTDVALEHHEECDCVCRGSTGG
With B1 the binding was “binds”.
